The whole screen tested about 330,000 compounds, of which about 7,700 (2.3%) were called active. The shares of active, inactive and inconclusive entries below differ from those in the screen. Calls come from the whole dose curve; as a rule, active = well fitted inhibition curve with a large enough effect; inconclusive = small, poorly fitted or top-dose-only effect, or effect the other way; inactive = flat fitted curve, though single readings scatter. Potencies beside an inconclusive call are fits to weak or partial responses and may not hold up.
Test: qHTS screen for small molecules that inhibit ELG1-dependent DNA repair in human embryonic kidney (HEK293T) cells expressing luciferase-tagged ELG1; note: nearly all actives have a fitted effect of over 55% in size
Conditions: HEK293T ELG1-luciferase reporter, luminescence, 16 h, DNA damage induced by 5-fluorouridine; series mostly up to 46.1 µM
In short: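 Reporter activity after DNA damage by 5-fluorouridine is monitored. Compound-treated cells incubate 16 hr at 37 °C, then ONE-Glo is added for 30 min before luminescence reading.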
Potency is the fitted concentration of half-maximal effect.

Compound | Potency
COC(=O)C1CCCN1S(=O)(=O)c1ccc([N+](=O)[O-])cc1 (configuration not stated) | inactive
c1ccc(-c2nnc(SCC3CCCCO3)nc2-c2ccccc2)cc1 (configuration not stated) | inconclusive: 3.26 µM [inhibitor, single point]
NC(=NCc1ccco1)NC(=O)c1ccccc1 | inconclusive: 16.4 µM [activator, partial curve]
COc1cccc(C(=O)NN=C2CCCC2)c1 | inactive
Nc1ccc(-c2cnc[nH]2)cc1[N+](=O)[O-] | inconclusive: 1.03 µM [activator, full curve, poor fit]
COc1ccc([C@@H]2[C@@H]3C(=O)N(C(C)(C)C)C(=O)[C@@H]3[C@]3(Cc4ccccc4)C(=O)N(c4cccc(C)c4)C(=O)N23)cc1 | inactive
CCN(CC(=O)Nc1c(F)cccc1F)C(=O)c1csc2c1CCCC2 | inactive
COc1cc(C(=O)O)nc2ccccc12 | inactive
CC1CCC(C(=O)NNC(=O)c2cc(-c3ccco3)[nH]n2)CC1 (configuration not stated) | inactive
CC(Oc1ccc(Cl)cc1Cl)c1ccnc(N)n1 (configuration not stated) | inactive
O=C(Nc1cccnc1)C1COc2ccccc2O1 (configuration not stated) | inactive
Cc1ccc(CSCCNC(=O)c2ccc(Cl)c(S(=O)(=O)N3CCOCC3)c2)cc1 | active: 23.1 µM
Cc1ccc(C2=NN(S(C)(=O)=O)C(c3cccs3)C2)cc1 (configuration not stated) | inconclusive: 13 µM [activator, partial curve]
CC(OC(=O)c1cc2sccc2n1C)C(=O)NCc1cccs1 (configuration not stated) | inconclusive: 16.4 µM [inhibitor, single point]
CCOC(=O)Cc1cc(-c2ccc(OC)cc2)nc2ccc3ccccc3c12 | inactive
Cc1sc2c3ccsc3ccc2[n+]1C | inactive
O=C1/C(=C\c2ccsc2)NC(=S)N1c1ccccc1 | inconclusive: 18.3 µM [inhibitor, single point]
CCSc1ccccc1C(=O)Nc1ccc2c(c1)OCO2 | inconclusive: 18.3 µM [activator, single point]
COC(=O)c1ccc(C2C(Oc3ccccc3C)C(=O)N2CCc2ccc(OC)c(OC)c2)cc1 (configuration not stated) | inconclusive: 20.6 µM [inhibitor, single point]
CCCn1nc(C(=O)NCc2ccc3c(c2)OCO3)c2ccccc2c1=O | inconclusive: 23.1 µM [inhibitor, single point]
O=C(NCc1ccccn1)Nc1ccc2c(c1)OCO2 | inconclusive: 16.4 µM [activator, partial curve]
COc1cccc(OC)c1C(=O)OCc1c(-c2ccccc2)ncc2ccccc12 | inconclusive: 18.3 µM [inhibitor, partial curve]
Cc1cccnc1NC(=S)NC(=O)c1cccs1 | inconclusive: 3.26 µM [activator, partial curve]
COc1ccc(OC)c(C2=CC(=O)C[C@H](c3ccc4c(c3)OCO4)C2)c1 | inconclusive: 7.3 µM [inhibitor, partial curve]

Compound | Potency
Cc1nc2c(ncn2-c2ccccc2)c(=O)n1NC(=O)CN1CCN(C)CC1 | inconclusive: 18.3 µM [inhibitor, single point]
CCn1c(N2CCN(C(=O)Nc3ccc(F)cc3)CC2)nc2ccccc21 | inconclusive: 29.1 µM [inhibitor, partial curve, poor fit]
N/C(=N\OC(=O)c1cccnc1)c1ccccc1Cl | inconclusive: 25.9 µM [activator, single point]
Cc1ccc(-n2c(-c3ccc(Cl)cc3)c[n+]3c2CCC3)cc1 | active: 2.91 µM
O=C(CN1C(=O)C(c2ccc(F)cc2)=NC12CCCC2)Nc1ccc(F)cc1 | inconclusive: 6.51 µM [inhibitor, single point]
CCOC(=O)N1CCN(c2nc(-c3ccc(Cl)cc3)cs2)CC1 | inconclusive: 1.16 µM [inhibitor, single point]
Cc1ccc(-c2c(C(=O)N/N=C/c3ccsc3)nnn2-c2nonc2N)cc1 | inactive
O=C(NC1=NCCS1)c1csc2ccccc12 | inconclusive: 4.11 µM [activator, partial curve]
c1ccc(-c2ccc(-c3cn4c(n3)CCC4)cc2)cc1 | inconclusive: 0.58 µM [activator, full curve]
CCOC(=O)CSc1nc(C(C)(C)C)nc2ccccc12 | inactive
CCOc1ccccc1/C=C(/NC(=O)c1ccccc1)C(=O)NCC(=O)O | inconclusive: 25.9 µM [activator, partial curve, poor fit]
O=C(O)CCC(=O)N1N=C(c2ccccc2)CC1c1ccc2nccnc2c1 (configuration not stated) | inconclusive: 8.2 µM [activator, partial curve, poor fit]
O=[N+]([O-])c1cnccc1Nc1ccc(F)cc1 | inconclusive: 23.1 µM [inhibitor, partial curve, poor fit]
CCC1(COC(=O)Nc2cccc(Cl)c2)COC1 | inconclusive: 20.6 µM [activator, single point]
CCOc1ccc(C(=O)COC(=O)c2nc3nccc(C)n3n2)cc1 | inconclusive: 18.3 µM [activator, single point]
Cc1c(-c2nc(N)nc(Nc3ccc(F)cc3)n2)oc2ccccc12 | inconclusive: 2.06 µM [activator, partial curve, poor fit]
CC(C)(C)c1ccc(C(=O)Nc2cccc3ncccc23)cc1 | inactive
Cc1noc(NS(=O)(=O)c2ccc(NC(=O)c3ccc(N(C)C)cc3)cc2)c1C | inconclusive: 23.1 µM [activator, partial curve, poor fit]
COCCn1c(SCC(=O)NC2CC2)nc2ccccc21 | inconclusive: 23.1 µM [activator, single point]
Cn1cccc1/C=N/NC(=O)c1sc2ccccc2c1Cl | inconclusive: 25.9 µM [activator, single point]
COc1ccc(C(=O)N/N=C(\C)c2cccc(NC(=O)c3ccc(F)cc3)c2)c(OC)c1 | inconclusive: 18.3 µM [inhibitor, single point]
Cc1ccc(S(=O)(=O)c2nc(-c3ccco3)oc2N2CCC(C)CC2)cc1 | inconclusive: 3.26 µM [inhibitor, partial curve, poor fit]
CCCCC(=O)Nc1ccccc1N1CCN(c2ccc(F)cc2)CC1 | inconclusive: 29.1 µM [inhibitor, single point]
CCOc1cc(N2CCOCC2)c(OCC)cc1NC(=O)COc1ccc2ccc(=O)oc2c1 | inconclusive: 6.51 µM [inhibitor, full curve, poor fit]

Arranged by formula weight (descending): part of the list above.
Compound | Potency
Cc1ccc(S(=O)(=O)c2nc(-c3ccco3)oc2N2CCC(C)CC2)cc1 | inconclusive: 3.26 µM [inhibitor, partial curve, poor fit]
O=C(CN1C(=O)C(c2ccc(F)cc2)=NC12CCCC2)Nc1ccc(F)cc1 | inconclusive: 6.51 µM [inhibitor, single point]
Cc1ccc(-n2c(-c3ccc(Cl)cc3)c[n+]3c2CCC3)cc1 | active: 2.91 µM

(cont.)

Compound | Potency
CCOC(=O)C1(CC)NC(c2ccc(OC)c(OC)c2)C2C(=O)N(c3cccc(C(C)=O)c3)C(=O)C21 (configuration not stated) | inactive
O=C(COC(=O)c1cccnc1Cl)c1ccc(Cl)cc1Cl | inactive
O=[N+]([O-])/C=C/c1ccc2c(ccn2Cc2ccccc2)c1 | inconclusive: 32.6 µM [inhibitor, single point]
O=C(Nc1ccc(N2CCCC2)c(Cl)c1)c1ccc([N+](=O)[O-])cc1 | active: 1.84 µM
CCc1ccc(C2=NN(c3ccc(S(N)(=O)=O)cc3)C(c3ccc(F)cc3)C2)cc1 (configuration not stated) | inactive
O=C(c1cccs1)N1CCN(c2ccc(Cl)cc2)CC1 | inconclusive: 16.4 µM [activator, partial curve, poor fit]
CCN(CC)S(=O)(=O)c1ccc(=O)n(CC(=O)N2CCCc3cc(C)ccc32)c1 | inconclusive: 20.6 µM [inhibitor, partial curve, poor fit]
CCCN1CCCc2cc(CN)ccc21 | inconclusive: 18.4 µM [inhibitor, partial curve]
O=c1c2oc3ccccc3c2ncn1Cc1ccc(F)cc1 | inconclusive: 25.9 µM [activator, single point]
CC(=O)c1c(C)oc(C)c1CSCc1ccc(C(=O)O)o1 | inconclusive: 29.1 µM [activator, single point]
COc1ccc(NC(=O)N(Cc2cccs2)Cc2cc3cc4c(cc3[nH]c2=O)OCO4)cc1 | active: 20.6 µM
COc1cc(CNCCc2ccccc2)cc(Br)c1OCC(=O)Nc1ccccc1C | inactive
CC(C)c1ccc(C(=O)NN2C(=O)C3CCCCC3C2=O)cc1 (configuration not stated) | inconclusive: 18.4 µM [activator, partial curve]
COc1ccc(NC(=O)Cn2c(=O)oc3cc(S(=O)(=O)N4CCCC4)ccc32)c(OC)c1 | inactive
CCCC(O)(c1ccc(Cl)cc1)C(CN1CCOCC1)c1ccccc1 (configuration not stated) | inactive
O=S(=O)(c1ccccc1)N1N=C(c2ccc(O)cc2)CC1c1ccco1 (configuration not stated) | inconclusive: 4.61 µM [inhibitor, full curve]
Cc1cccn2c(=O)c(/C=C(\C#N)C(N)=O)c(N3CCN(c4ccccc4)CC3)nc12 | inconclusive: 20.6 µM [inhibitor, single point]
Cc1cccc(NC(=O)C(=O)NCCCc2ccccc2)c1 | inconclusive: 20.6 µM [activator, partial curve]
Cc1nc2nc(CCNS(=O)(=O)c3ccc(Cl)cc3)cn2nc1C | inactive
O=c1/c(=C/c2cn(-c3ccccc3)nc2-c2ccc(F)cc2)sc2nc3ccccc3n12 | inactive
COc1cccc(CN(C)CC(=O)NCc2ccc(F)cc2)c1OC | inconclusive: 14.6 µM [inhibitor, partial curve, poor fit]
COc1cc2c(cc1NC(=O)CSc1nnnn1-c1ccccc1)oc1ccccc12 | inactive
Nc1c(-c2cccs2)cnc2c(-c3ccc(F)cc3)cnn12 | inconclusive: 2.31 µM [activator, full curve]
COc1ccc(C2c3ccc4ccccc4c3Oc3ncn(CCN4CCOCC4)c(=N)c32)cc1 (configuration not stated) | inactive
